# The supplement of paper PMC8728848
# The list shows a part of the results.
# Experiments:
# Assay in all cases: glycan array binding signal (z-score within array); higher = stronger binding
# Conditions in all cases: glycan notation: IUPAC condensed, linker removed
# Neu5Ac(a2-3)GalNAc = target: Neu5Ac(a2-3)GalNAc
# How it was run: (§1)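 The binding signal is a Z-score computed within each array. Data were drawn from 3228 arrays in the Consortium for Functional Glycomics database, restricted to those with a known protein sequence. Scores were averaged over arrays of the same protein sequence at different concentrations or buffers, and over linkers, and negative values can be taken as non-binding.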
# [1] = target: Neu5Ac(a2-3)GalNAc(b1-4)GlcNAc
# How it was run: as §1
# [2] = target: Neu5Ac(a2-3)[GalNAc(b1-4)]Gal(b1-4)Glc
# How it was run: as §1
# [3] = target: Neu5Ac(a2-3)[GalNAc(b1-4)]Gal(b1-4)GlcNAc
# How it was run: as §1
# [4] = target: Neu5Ac(a2-3)[GalNAc(b1-4)]Gal(b1-4)GlcNAc(b1-3)GalNAc
# How it was run: as §1
# [5] = target: Neu5Ac(a2-3)[Neu5Ac(a2-6)]GalNAc
# How it was run: as §1
# Neu5Ac(a2-6)Gal = target: Neu5Ac(a2-6)Gal
# How it was run: as §1
# [6] = target: Neu5Ac(a2-6)Gal(b1-3)GlcNAc(b1-3)[Gal(b1-4)GlcNAc(b1-6)]Gal(b1-4)Glc
# How it was run: as §1
# Neu5Ac(a2-6)Gal(b1-4)Glc = target: Neu5Ac(a2-6)Gal(b1-4)Glc
# How it was run: as §1
# [7] = target: Neu5Ac(a2-6)Gal(b1-4)GlcNAc
# How it was run: as §1
# [8] = target: Neu5Ac(a2-6)Gal(b1-4)GlcNAc(b1-2)Man
# How it was run: as §1
# [9] = target: Neu5Ac(a2-6)Gal(b1-4)GlcNAc(b1-2)Man(a1-3)Man(b1-4)GlcNAc(b1-4)GlcNAc
# How it was run: as §1
# [10] = target: Neu5Ac(a2-6)Gal(b1-4)GlcNAc(b1-2)Man(a1-3)[Gal(b1-4)GlcNAc(b1-2)Man(a1-6)]Man(b1-4)GlcNAc(b1-4)GlcNAc
# How it was run: as §1
# [11] = target: Neu5Ac(a2-6)Gal(b1-4)GlcNAc(b1-2)Man(a1-3)[GlcNAc(b1-2)Man(a1-6)]Man(b1-4)GlcNAc(b1-4)GlcNAc
# How it was run: as §1
# [12] = target: Neu5Ac(a2-6)Gal(b1-4)GlcNAc(b1-2)Man(a1-3)[GlcNAc(b1-4)][Neu5Ac(a2-6)Gal(b1-4)GlcNAc(b1-2)Man(a1-6)]Man(b1-4)GlcNAc(b1-4)GlcNAc
# How it was run: as §1
# [13] = target: Neu5Ac(a2-6)Gal(b1-4)GlcNAc(b1-2)Man(a1-3)[Man(a1-6)]Man(b1-4)GlcNAc(b1-4)GlcNAc
# How it was run: as §1
# [14] = target: Neu5Ac(a2-6)Gal(b1-4)GlcNAc(b1-2)Man(a1-3)[Neu5Ac(a2-3)Gal(b1-4)GlcNAc(b1-2)Man(a1-6)]Man(b1-4)GlcNAc(b1-4)GlcNAc
# How it was run: as §1
# [15] = target: Neu5Ac(a2-6)Gal(b1-4)GlcNAc(b1-2)Man(a1-3)[Neu5Ac(a2-6)Gal(b1-4)GlcNAc(b1-2)Man(a1-6)]Man(b1-4)GlcNAc(b1-4)GlcNAc
# How it was run: as §1
# [16] = target: Neu5Ac(a2-6)Gal(b1-4)GlcNAc(b1-2)Man(a1-3)[Neu5Ac(a2-6)Gal(b1-4)GlcNAc(b1-2)Man(a1-6)]Man(b1-4)GlcNAc(b1-4)[Fuc(a1-6)]GlcNAc
# How it was run: as §1
# [17] = target: Neu5Ac(a2-6)Gal(b1-4)GlcNAc(b1-2)Man(a1-6)Man(b1-4)GlcNAc(b1-4)GlcNAc
# How it was run: as §1
# [18] = target: Neu5Ac(a2-6)Gal(b1-4)GlcNAc(b1-2)Man(a1-6)[Gal(b1-4)GlcNAc(b1-2)Man(a1-3)]Man(b1-4)GlcNAc(b1-4)GlcNAc
# How it was run: as §1
# [19] = target: Neu5Ac(a2-6)Gal(b1-4)GlcNAc(b1-2)Man(a1-6)[GlcNAc(b1-2)Man(a1-3)]Man(b1-4)GlcNAc(b1-4)GlcNAc
# How it was run: as §1
# [20] = target: Neu5Ac(a2-6)Gal(b1-4)GlcNAc(b1-2)Man(a1-6)[Man(a1-3)]Man(b1-4)GlcNAc(b1-4)GlcNAc
# How it was run: as §1
# [21] = target: Neu5Ac(a2-6)Gal(b1-4)GlcNAc(b1-2)[Neu5Ac(a2-6)Gal(b1-4)GlcNAc(b1-4)]Man(a1-3)[GlcNAc(b1-4)][Neu5Ac(a2-6)Gal(b1-4)GlcNAc(b1-2)[Neu5Ac(a2-6)Gal(b1-4)GlcNAc(b1-6)]Man(a1-6)]Man(b1-4)GlcNAc(b1-4)GlcNAc
# How it was run: as §1
# [22] = target: Neu5Ac(a2-6)Gal(b1-4)GlcNAc(b1-2)[Neu5Ac(a2-6)Gal(b1-4)GlcNAc(b1-4)]Man(a1-3)[GlcNAc(b1-4)][Neu5Ac(a2-6)Gal(b1-4)GlcNAc(b1-4)Man(a1-6)]Man(b1-4)GlcNAc(b1-4)GlcNAc
# How it was run: as §1
# [23] = target: Neu5Ac(a2-6)Gal(b1-4)GlcNAc(b1-2)[Neu5Ac(a2-6)Gal(b1-4)GlcNAc(b1-6)]Man(a1-6)[Neu5Ac(a2-6)Gal(b1-4)GlcNAc(b1-2)Man(a1-3)][GlcNAc(b1-4)]Man(b1-4)GlcNAc(b1-4)GlcNAc
# How it was run: as §1
# [24] = target: Neu5Ac(a2-6)Gal(b1-4)GlcNAc(b1-3)Gal(b1-3)GlcNAc
# How it was run: as §1
# [25] = target: Neu5Ac(a2-6)Gal(b1-4)GlcNAc(b1-3)Gal(b1-4)GlcNAc
# How it was run: as §1
# [26] = target: Neu5Ac(a2-6)Gal(b1-4)GlcNAc(b1-3)Gal(b1-4)GlcNAc(b1-2)Man(a1-3)[Neu5Ac(a2-6)Gal(b1-4)GlcNAc(b1-3)Gal(b1-4)GlcNAc(b1-2)Man(a1-6)]GalNAc
# How it was run: as §1
# [27] = target: Neu5Ac(a2-6)Gal(b1-4)GlcNAc(b1-3)Gal(b1-4)GlcNAc(b1-3)Gal(b1-4)GlcNAc
# How it was run: as §1
# [28] = target: Neu5Ac(a2-6)Gal(b1-4)GlcNAc(b1-3)Gal(b1-4)GlcNAc(b1-3)Gal(b1-4)GlcNAc(b1-2)Man(a1-3)[Neu5Ac(a2-6)Gal(b1-4)GlcNAc(b1-3)Gal(b1-4)GlcNAc(b1-3)Gal(b1-4)GlcNAc(b1-2)Man(a1-6)]GalNAc
# How it was run: as §1
# [29] = target: Neu5Ac(a2-6)Gal(b1-4)GlcNAc(b1-3)Gal(b1-4)GlcNAc(b1-3)GalNAc
# How it was run: as §1
# [30] = target: Neu5Ac(a2-6)Gal(b1-4)GlcNAc(b1-3)Gal(b1-4)GlcNAc(b1-3)[Neu5Ac(a2-6)Gal(b1-4)GlcNAc(b1-3)Gal(b1-4)GlcNAc(b1-6)]GalNAc
# How it was run: as §1
# [31] = target: Neu5Ac(a2-6)Gal(b1-4)GlcNAc(b1-3)Gal(b1-4)GlcNAc(b1-6)[Gal(b1-3)]GalNAc
# How it was run: as §1
# [32] = target: Neu5Ac(a2-6)Gal(b1-4)GlcNAc(b1-3)Gal(b1-4)[Fuc(a1-3)]GlcNAc(b1-3)Gal(b1-4)[Fuc(a1-3)]GlcNAc
# How it was run: as §1
# [33] = target: Neu5Ac(a2-6)Gal(b1-4)GlcNAc(b1-3)GalNAc
# How it was run: as §1
# [34] = target: Neu5Ac(a2-6)Gal(b1-4)GlcNAc(b1-3)[Neu5Ac(a2-6)Gal(b1-4)GlcNAc(b1-6)]GalNAc
# How it was run: as §1
# [35] = target: Neu5Ac(a2-6)Gal(b1-4)GlcNAc(b1-6)GalNAc
# How it was run: as §1
# [36] = target: Neu5Ac(a2-6)Gal(b1-4)GlcNAc(b1-6)[Gal(b1-3)GlcNAc(b1-3)]Gal(b1-4)Glc
# How it was run: as §1
# [37] = target: Neu5Ac(a2-6)Gal(b1-4)GlcNAc(b1-6)[Gal(b1-3)]GalNAc
# How it was run: as §1
# [38] = target: Neu5Ac(a2-6)Gal(b1-4)GlcNAc6S
# How it was run: as §1
# Neu5Ac(a2-6)GalNAc = target: Neu5Ac(a2-6)GalNAc
# How it was run: as §1
# [39] = target: Neu5Ac(a2-6)GalNAc(b1-4)GlcNAc
# How it was run: as §1
# [40] = target: Neu5Ac(a2-6)GalNAc(b1-4)GlcNAc6S
# How it was run: as §1
# [41] = target: Neu5Ac(a2-6)GlcNAc(b1-4)GlcNAc
# How it was run: as §1
binder,measurement,setting,value
GS7807G-bfa-506-18-506 (Bacteroides fragilis) (protein) ASCDKFDEINTDPDATTKVTSSLLATGLLLDITSSSASKSFIYDELLAKQMAWGESMEDYQYNVFGRSGFGGYTTLINAQKMVESVSDDNVNAYDGLAHFIKAYKIFYMSMEMGDLPYEEALQGELGLVRPKYNTQKEVMNFILSDLETAYELFSTAKDFDGDPILGGSISKWKKATTAFQLKVLMHLSKKESDADLKVKERFARIVASGSLMESNEDNLQMKYADKANTVYPFHNTNTKHAGYAMLSTMLIDKFKATGDIRMFYYAKPAKAKLNEGVTADSWDAYIGTDPSLPFEQIEKAYATEQYSGFNARYTDYPSGEPVVRLGYAEQNFILAEAAVRGWISGDASAYYKKAIRAHMEFIASNTPDEEVYHHGHPITEEAIAAFLETPAIQLSGEKEEDIEKILTQRYLASFMQHPYDVYYDYRRTGYPVLPINPATNRNTMNDRLPMRWMYPKSESDYNLEHQNEALERQFGGVDDVNKLMWILQ,glycan array binding signal (z-score),Neu5Ac(a2-3)GalNAc,-0.425
same,glycan array binding signal (z-score),[1],-0.697
same,glycan array binding signal (z-score),[2],-0.595
same,glycan array binding signal (z-score),[3],-0.274
same,glycan array binding signal (z-score),[4],1.23
same,glycan array binding signal (z-score),[5],-0.349
same,glycan array binding signal (z-score),Neu5Ac(a2-6)Gal,0.696
same,glycan array binding signal (z-score),[6],-0.698
same,glycan array binding signal (z-score),Neu5Ac(a2-6)Gal(b1-4)Glc,-0.035
same,glycan array binding signal (z-score),[7],-0.841
same,glycan array binding signal (z-score),[8],-0.274
same,glycan array binding signal (z-score),[9],-0.182
same,glycan array binding signal (z-score),[10],0.182
same,glycan array binding signal (z-score),[11],-0.493
same,glycan array binding signal (z-score),[12],-0.833
same,glycan array binding signal (z-score),[13],-0.288
same,glycan array binding signal (z-score),[14],-0.269
same,glycan array binding signal (z-score),[15],0.461
same,glycan array binding signal (z-score),[16],4.41
same,glycan array binding signal (z-score),[17],-0.108
same,glycan array binding signal (z-score),[18],1.79
same,glycan array binding signal (z-score),[19],0.462
same,glycan array binding signal (z-score),[20],0.792
same,glycan array binding signal (z-score),[21],-0.091
same,glycan array binding signal (z-score),[22],-0.864
same,glycan array binding signal (z-score),[23],-0.09
same,glycan array binding signal (z-score),[24],-0.411
same,glycan array binding signal (z-score),[25],-0.74
same,glycan array binding signal (z-score),[26],0.079
same,glycan array binding signal (z-score),[27],-0.935
same,glycan array binding signal (z-score),[28],0.506
same,glycan array binding signal (z-score),[29],-0.539
same,glycan array binding signal (z-score),[30],0.359
same,glycan array binding signal (z-score),[31],1.22
same,glycan array binding signal (z-score),[32],-0.153
same,glycan array binding signal (z-score),[33],2.85
same,glycan array binding signal (z-score),[34],2.58
same,glycan array binding signal (z-score),[35],-0.681
same,glycan array binding signal (z-score),[36],-0.603
same,glycan array binding signal (z-score),[37],2.06
same,glycan array binding signal (z-score),[38],-1
same,glycan array binding signal (z-score),Neu5Ac(a2-6)GalNAc,-0.97
same,glycan array binding signal (z-score),[39],-0.624
same,glycan array binding signal (z-score),[40],-0.052
same,glycan array binding signal (z-score),[41],-0.846

# Some of the entries so far, as tab-separated lines.
binder	measurement	setting	value
GS7807G-bfa-506-18-506 (Bacteroides fragilis) (protein) ASCDKFDEINTDPDATTKVTSSLLATGLLLDITSSSASKSFIYDELLAKQMAWGESMEDYQYNVFGRSGFGGYTTLINAQKMVESVSDDNVNAYDGLAHFIKAYKIFYMSMEMGDLPYEEALQGELGLVRPKYNTQKEVMNFILSDLETAYELFSTAKDFDGDPILGGSISKWKKATTAFQLKVLMHLSKKESDADLKVKERFARIVASGSLMESNEDNLQMKYADKANTVYPFHNTNTKHAGYAMLSTMLIDKFKATGDIRMFYYAKPAKAKLNEGVTADSWDAYIGTDPSLPFEQIEKAYATEQYSGFNARYTDYPSGEPVVRLGYAEQNFILAEAAVRGWISGDASAYYKKAIRAHMEFIASNTPDEEVYHHGHPITEEAIAAFLETPAIQLSGEKEEDIEKILTQRYLASFMQHPYDVYYDYRRTGYPVLPINPATNRNTMNDRLPMRWMYPKSESDYNLEHQNEALERQFGGVDDVNKLMWILQ	glycan array binding signal (z-score)	[1]	-0.697
same	glycan array binding signal (z-score)	[3]	-0.274
same	glycan array binding signal (z-score)	[4]	1.23
same	glycan array binding signal (z-score)	[10]	0.182
same	glycan array binding signal (z-score)	[15]	0.461
same	glycan array binding signal (z-score)	[21]	-0.091
same	glycan array binding signal (z-score)	[26]	0.079
same	glycan array binding signal (z-score)	[27]	-0.935
same	glycan array binding signal (z-score)	[28]	0.506
same	glycan array binding signal (z-score)	[36]	-0.603
same	glycan array binding signal (z-score)	[37]	2.06
